Data taken from patent publication US10281476B2, “Methods to identify modulators of RyR calcium channels” (REGENTS OF THE UNIVERSITY OF MINNESOTA, priority 2013, dated 2019).
At least one compound was matched to its structure with a doubt left. Where a SMILES comes first, the peptide text is derived from it. Where no end group is shown, it is not given here. The star is where a group is joined. 5FAM = O=C1OC2(c3ccc(O)cc3Oc3cc(O)ccc32)c2ccc(C(=O)*)cc21

Columns and labels:
RyR2 [1] = target: T1, RyR2 (Rattus norvegicus, UniProt B0LPN4); test: Steady-state F-DPc10 binding at the Z-line of saponin-permeabilized myocytes (confocal); set-up: endogenous in cells; host or cells: saponin-permeabilized adult rat ventricular myocytes; settings: in-cell binding isotherm, [Ca2+]i 50 nmol/L; read-out: apparent dissociation constant (Kd) for F-DPc10 binding at the Z-line
Procedure: Rat ventricular myocytes were isolated and permeabilized as previously described (Li et al., Circ Res, 2002; 90:309-316). All procedures were performed according to the Guiding Principles in the Care and Use of the Animals and were approved by the Council of American Physiological Society. DPc10, FKBP12.6, and CaM were labeled at specific sites with small fluorescence probes, similar to our previous studies (Guo et al., Circ Res, 2010; 106:1743-1752; Cornea et al., PNAS USA, 2009; 106:6128-6133; Guo et al., Biophys J, 2011; 101:2170-2177).
Confocal images was measured using a Biorad RADIANCE2100™ laser scanning confocal microscope equipped with an Argon ion laser, Green HeNe laser and with a Nikon Fluo x40 oil lens. FRET (fluorescence resonance energy transfer) experiments between CaM and DPc10, and FKBP12.6 and DPc10 were performed using an Olympus FV1000 confocal microscope. […]
Myocytes were exposed to […] F-DPc10, with intracellular [Ca^2+] ([Ca^2+]i) set at 50 nmol/L. F-DPc10 fluorescence is highest at the Z-lines, where RyR2 is concentrated, forming a typical cross-striated pattern. The difference between fluorescence intensity at the Z-line (Fz) and M-line (FM) is taken to represent [F-DPc10] specifically bound at the myocyte Z-line. […] Donor (AF568-FKBP12.6) fluorescence at the Z-line was quenched by HF647-DPc10, but the M-line signal was not (FIG. 9B). […]

RyR2 [2] = target: T1, RyR2; test: F-DPc10 wash-in and washout kinetics at the myocyte Z-line; type: binding; set-up: endogenous in cells; host or cells: saponin-permeabilized adult rat ventricular myocytes; settings: from kinetic constants; read-out: Kd=koff/kon at the Z-line
Procedure: To characterize DPc10-binding kinetics at Z-lines, we performed F-DPc10 wash-in (500 nmol/L) and washout experiments in permeabilized myocytes (FIG. 10A). Association (τwash-in=79.0±3.2 minutes) and dissociation (τwashout=149.8±4.4 minutes) were very slow compared with similar FKBP12.6 measurements (Guo et al., Circ Res, 2010; 106:1743-1752). From the wash-in/washout measurements, we calculated the association and dissociation rates constants, kon and koff, respectively, according to the following equation: kwash-in=[F-DPc10]kon+koff where kwashout≈koff and k=1/τ (s^−1). Accordingly, kon=202±20 (L mol^−1 s^−1) and koff=0.11±0.01 (10^−3 s^−1). […]
We were intrigued by the slow kwash-in and conducted measurements to further understand the basis of this slow association. […] To discern between these mechanisms, we determined the effect of [F-DPc10] on τwash-in. […]
In our working model, under resting conditions, the RyR2 closed state may be stabilized by the interaction between the N-terminal and central domain in the zipped state. […] To test this, we first monitored F-DPc10 wash-in at elevated Ca^2+ (500 nmol/L). […]
Both FKBP12.6 and CaM bind to the RyR2 and can reduce channel opening, which might alter DPc10 binding. […] Neither CaM nor FKBP12.6 pretreatment altered M-line F-DPc10 fluorescence (FIG. 15). […]

RyR2 [3] = target: T1, RyR2; test: Steady-state FRET between AF568-FKBP12.6 (donor) and HF647-DPc10 (acceptor) in permeabilized cardiomyocytes; type: binding; set-up: These fluorescent proteins were added to saponin-permeabilized myocytes with or without pre-equilibration with saturating DPc10 concentration; endogenous in cells; host or cells: saponin-permeabilized rat ventricular myocytes; settings: FRET AF568-FKBP12.6 / HF647-DPc10

Compound | Kd (RyR2 [1]) [nM] | Kd (RyR2 [2]) [nM] | Kd (RyR2 [3]; read-out: apparent Kd calculated based on donor fluorescence quench) [nM] | Kd (RyR2 [3]; read-out: apparent Kd calculated based on enhanced acceptor fluorescence) [nM]
CC[C@H](C)[C@H](NC(=O)CNC(=O)[C@H](Cc1ccc(O)cc1)NC(=O)[C@@H](NC(=O)[C@H](CCCNC(=N)N)NC(=O)[C@H](CC(=O)O)NC(=O)[C@H](CC(C)C)NC(=O)[C@H](Cc1ccccc1)NC(=O)[C@H](CC(C)C)NC(=O)[C@@H](NC(=O)[C@H](CCSC)NC(=O)[C@H](C)NC(=O)[C@H](C)NC(=O)[C@H](CCCCN)NC(=O)[C@H](Cc1c[nH]cn1)NC(=O)[C@H](CC(=O)O)NC(=O)[C@@H]1CCCN1C(=O)[C@H](CS)NC(=O)[C@H](Cc1ccccc1)NC(=O)CNC(=O)c1ccc2c(c1)C(=O)OC21c2ccc(O)cc2Oc2cc(O)ccc21)C(C)C)C(C)C)C(=O)N[C@@H](CCC(=O)O)C(=O)N[C@H](C(=O)N[C@@H](CCC(N)=O)C(=O)N[C@@H](CC(=O)O)C(=O)N[C@@H](Cc1ccccc1)C(=O)N[C@@H](CC(C)C)C(=O)N[C@@H](CC(C)C)C(=O)N[C@@H](Cc1c[nH]cn1)C(=O)N[C@@H](CC(C)C)C(=O)N[C@@H](CC(C)C)C(=O)N[C@@H](CCC(=O)O)C(=O)N[C@H](C(=O)NCC(=O)N[C@@H](Cc1ccccc1)C(=O)N[C@@H](CC(C)C)C(=O)N1CCC[C@H]1C(=O)O)C(C)C)C(C)C [F-DPc10] (5FAM-GFCPDHKAAMVLFLDRVYGIEVQDFLLHLLEVGFLP-OH) | 480 ± 24 | 580 ± 69 |  | 
H-GFCPDHKAAMVLFLDRVYGIEVQDFLLHLLEVGFLP [HF647-DPc10] |  |  | 450 ± 43 | 610 ± 61
